This passage reports binding results from article PMC4520684.

The chains behind the UniProt entries cited, without tags or fusion partners. Where a name states a change or a piece, a line headed by the entry shows the natural chain unless it says otherwise.
UniProt O95390: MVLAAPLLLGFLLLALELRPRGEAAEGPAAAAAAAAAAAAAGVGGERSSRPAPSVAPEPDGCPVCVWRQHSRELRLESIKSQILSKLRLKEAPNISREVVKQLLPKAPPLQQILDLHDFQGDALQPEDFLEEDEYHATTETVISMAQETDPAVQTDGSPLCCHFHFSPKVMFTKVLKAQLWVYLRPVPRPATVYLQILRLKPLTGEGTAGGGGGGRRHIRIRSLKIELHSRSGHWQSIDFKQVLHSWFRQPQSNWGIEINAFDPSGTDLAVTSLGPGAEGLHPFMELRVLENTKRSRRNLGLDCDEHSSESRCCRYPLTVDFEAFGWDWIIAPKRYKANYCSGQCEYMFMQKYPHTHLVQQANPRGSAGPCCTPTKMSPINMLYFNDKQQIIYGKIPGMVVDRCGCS
UniProt O14793: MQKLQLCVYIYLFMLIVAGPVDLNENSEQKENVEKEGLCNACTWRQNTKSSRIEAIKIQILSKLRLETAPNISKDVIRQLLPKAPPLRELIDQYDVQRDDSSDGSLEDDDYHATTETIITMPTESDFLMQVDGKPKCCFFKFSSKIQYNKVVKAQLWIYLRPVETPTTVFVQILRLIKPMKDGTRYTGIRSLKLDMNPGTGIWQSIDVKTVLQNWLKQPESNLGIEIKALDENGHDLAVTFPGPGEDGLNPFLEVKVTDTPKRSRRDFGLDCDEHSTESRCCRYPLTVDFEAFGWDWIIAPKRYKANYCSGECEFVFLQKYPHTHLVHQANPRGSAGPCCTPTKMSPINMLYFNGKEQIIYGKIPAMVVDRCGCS

No constants are given. Whether binding was seen depends on the method and setting. In cells and extracts the contact can be indirect. A result given as binding can be weak or reduced; the word gives no strength. Tags and fused reporters may be left off the sequences shown.

The target in assay [1] is HA-tagged full-GDF11 (prodomain + ligand) (UniProt O95390). As to the kind of experiment: co-IP; COS-7 cells co-transfected with FLAG-tagged inhibitory core and V5- or HA-tagged ligand or receptor; whole cell extracts (50 mM Tris-HCl pH 7.4, 50 mM NaCl, 1% Triton X-100, 100 mM octyl glucoside) precipitated with anti-FLAG, anti-V5 or anti-HA agarose and immunoblotted.
Assay [2] concerns the target V5-tagged full-myostatin (prodomain + ligand) (UniProt O14793). Described as above.

CTWRQNTKSSRIEAIKIQILSKLRLETAP (domain or fragment) [FLAG-tagged inhibitory core of the myostatin prodomain]: the binding result in assay [1] and in assay [2] was “binds” each time.
